Data taken from article PMC12149670.
Results are given in words; binding and its absence hold for the method and conditions named. Binding seen in cells or lysates may run through a third protein. Here binding means that the protein was enriched with, or labelled near, the bait; the list need not be complete. For some assays here: A no says only that the protein was not detected with the bait.

Sequences of proteins named here, by UniProt entry; tags and fusion partners are left off.
UniProt P56546: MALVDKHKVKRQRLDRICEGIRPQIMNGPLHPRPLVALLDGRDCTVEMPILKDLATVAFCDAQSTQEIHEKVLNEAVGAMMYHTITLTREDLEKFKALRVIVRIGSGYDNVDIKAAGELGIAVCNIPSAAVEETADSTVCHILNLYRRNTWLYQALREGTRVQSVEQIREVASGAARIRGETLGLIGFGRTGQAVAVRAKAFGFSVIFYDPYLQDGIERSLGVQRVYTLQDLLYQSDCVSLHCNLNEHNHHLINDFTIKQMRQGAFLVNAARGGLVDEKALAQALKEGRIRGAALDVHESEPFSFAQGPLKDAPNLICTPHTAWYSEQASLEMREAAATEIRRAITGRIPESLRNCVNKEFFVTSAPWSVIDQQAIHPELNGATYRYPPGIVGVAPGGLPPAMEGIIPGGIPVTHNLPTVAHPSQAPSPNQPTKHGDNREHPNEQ
UniProt P28033: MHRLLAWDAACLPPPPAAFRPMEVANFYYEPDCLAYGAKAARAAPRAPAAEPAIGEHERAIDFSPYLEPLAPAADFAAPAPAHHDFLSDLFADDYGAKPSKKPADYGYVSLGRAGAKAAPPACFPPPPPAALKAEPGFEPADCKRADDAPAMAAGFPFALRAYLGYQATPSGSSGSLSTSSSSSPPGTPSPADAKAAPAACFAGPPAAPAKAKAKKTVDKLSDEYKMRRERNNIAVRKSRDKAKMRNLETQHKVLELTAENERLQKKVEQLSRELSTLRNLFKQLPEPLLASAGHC
UniProt P05627: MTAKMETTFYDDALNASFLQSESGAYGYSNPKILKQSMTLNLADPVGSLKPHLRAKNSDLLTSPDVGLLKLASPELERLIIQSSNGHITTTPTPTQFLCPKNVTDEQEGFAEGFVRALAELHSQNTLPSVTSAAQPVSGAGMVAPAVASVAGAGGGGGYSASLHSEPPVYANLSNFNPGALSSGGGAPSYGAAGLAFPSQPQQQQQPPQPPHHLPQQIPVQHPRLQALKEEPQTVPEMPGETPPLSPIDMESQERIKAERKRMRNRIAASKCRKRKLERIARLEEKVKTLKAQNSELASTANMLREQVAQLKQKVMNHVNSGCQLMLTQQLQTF
UniProt O88286: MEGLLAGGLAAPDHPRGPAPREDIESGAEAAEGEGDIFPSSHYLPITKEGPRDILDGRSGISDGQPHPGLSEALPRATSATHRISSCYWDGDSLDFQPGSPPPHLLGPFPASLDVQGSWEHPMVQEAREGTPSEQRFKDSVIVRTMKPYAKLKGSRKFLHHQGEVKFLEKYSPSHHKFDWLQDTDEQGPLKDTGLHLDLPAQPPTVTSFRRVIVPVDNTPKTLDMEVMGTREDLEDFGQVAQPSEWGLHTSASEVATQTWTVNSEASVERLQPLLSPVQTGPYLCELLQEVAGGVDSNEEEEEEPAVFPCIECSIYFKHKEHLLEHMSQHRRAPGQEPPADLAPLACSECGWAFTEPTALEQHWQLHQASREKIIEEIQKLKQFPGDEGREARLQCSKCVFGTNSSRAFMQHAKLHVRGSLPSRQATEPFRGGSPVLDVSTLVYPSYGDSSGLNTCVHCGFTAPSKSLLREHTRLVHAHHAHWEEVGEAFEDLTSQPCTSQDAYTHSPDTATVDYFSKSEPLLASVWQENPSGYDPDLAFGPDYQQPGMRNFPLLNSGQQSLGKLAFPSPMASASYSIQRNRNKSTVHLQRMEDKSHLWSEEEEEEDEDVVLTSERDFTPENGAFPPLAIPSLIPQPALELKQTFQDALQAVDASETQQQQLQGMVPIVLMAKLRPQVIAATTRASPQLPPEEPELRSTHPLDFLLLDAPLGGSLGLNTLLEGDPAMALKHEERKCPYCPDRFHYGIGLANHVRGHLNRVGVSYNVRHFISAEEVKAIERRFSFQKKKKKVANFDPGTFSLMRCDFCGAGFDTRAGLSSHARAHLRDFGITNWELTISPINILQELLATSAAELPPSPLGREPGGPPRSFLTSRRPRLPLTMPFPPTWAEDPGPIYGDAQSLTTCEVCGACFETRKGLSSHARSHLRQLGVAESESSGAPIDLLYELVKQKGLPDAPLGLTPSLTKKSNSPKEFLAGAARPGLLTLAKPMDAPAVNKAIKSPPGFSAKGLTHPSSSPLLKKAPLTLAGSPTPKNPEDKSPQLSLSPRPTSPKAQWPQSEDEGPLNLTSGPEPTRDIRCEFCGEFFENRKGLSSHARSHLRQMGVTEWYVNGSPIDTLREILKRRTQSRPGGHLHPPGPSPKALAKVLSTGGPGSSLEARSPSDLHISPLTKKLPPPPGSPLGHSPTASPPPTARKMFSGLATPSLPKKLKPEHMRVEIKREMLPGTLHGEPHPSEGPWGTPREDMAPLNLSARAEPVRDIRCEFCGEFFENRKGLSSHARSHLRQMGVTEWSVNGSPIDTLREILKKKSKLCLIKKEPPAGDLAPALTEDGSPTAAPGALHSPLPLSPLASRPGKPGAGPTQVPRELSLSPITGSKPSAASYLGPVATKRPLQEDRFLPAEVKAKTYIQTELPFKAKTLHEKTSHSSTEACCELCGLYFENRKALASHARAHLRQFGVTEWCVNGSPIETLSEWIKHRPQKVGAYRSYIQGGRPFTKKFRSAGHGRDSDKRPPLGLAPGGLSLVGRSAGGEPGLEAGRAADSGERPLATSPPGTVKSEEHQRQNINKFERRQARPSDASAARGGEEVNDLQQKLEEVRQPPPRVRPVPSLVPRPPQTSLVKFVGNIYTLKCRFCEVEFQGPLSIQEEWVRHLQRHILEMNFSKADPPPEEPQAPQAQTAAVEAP
UniProt O35381: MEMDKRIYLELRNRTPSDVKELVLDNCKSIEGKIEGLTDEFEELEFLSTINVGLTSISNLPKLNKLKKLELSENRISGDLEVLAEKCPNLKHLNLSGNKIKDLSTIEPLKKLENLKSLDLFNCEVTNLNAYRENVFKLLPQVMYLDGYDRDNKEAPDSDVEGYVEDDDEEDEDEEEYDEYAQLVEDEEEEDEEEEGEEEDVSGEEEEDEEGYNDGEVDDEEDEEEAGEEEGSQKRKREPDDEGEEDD
UniProt Q8CGN4: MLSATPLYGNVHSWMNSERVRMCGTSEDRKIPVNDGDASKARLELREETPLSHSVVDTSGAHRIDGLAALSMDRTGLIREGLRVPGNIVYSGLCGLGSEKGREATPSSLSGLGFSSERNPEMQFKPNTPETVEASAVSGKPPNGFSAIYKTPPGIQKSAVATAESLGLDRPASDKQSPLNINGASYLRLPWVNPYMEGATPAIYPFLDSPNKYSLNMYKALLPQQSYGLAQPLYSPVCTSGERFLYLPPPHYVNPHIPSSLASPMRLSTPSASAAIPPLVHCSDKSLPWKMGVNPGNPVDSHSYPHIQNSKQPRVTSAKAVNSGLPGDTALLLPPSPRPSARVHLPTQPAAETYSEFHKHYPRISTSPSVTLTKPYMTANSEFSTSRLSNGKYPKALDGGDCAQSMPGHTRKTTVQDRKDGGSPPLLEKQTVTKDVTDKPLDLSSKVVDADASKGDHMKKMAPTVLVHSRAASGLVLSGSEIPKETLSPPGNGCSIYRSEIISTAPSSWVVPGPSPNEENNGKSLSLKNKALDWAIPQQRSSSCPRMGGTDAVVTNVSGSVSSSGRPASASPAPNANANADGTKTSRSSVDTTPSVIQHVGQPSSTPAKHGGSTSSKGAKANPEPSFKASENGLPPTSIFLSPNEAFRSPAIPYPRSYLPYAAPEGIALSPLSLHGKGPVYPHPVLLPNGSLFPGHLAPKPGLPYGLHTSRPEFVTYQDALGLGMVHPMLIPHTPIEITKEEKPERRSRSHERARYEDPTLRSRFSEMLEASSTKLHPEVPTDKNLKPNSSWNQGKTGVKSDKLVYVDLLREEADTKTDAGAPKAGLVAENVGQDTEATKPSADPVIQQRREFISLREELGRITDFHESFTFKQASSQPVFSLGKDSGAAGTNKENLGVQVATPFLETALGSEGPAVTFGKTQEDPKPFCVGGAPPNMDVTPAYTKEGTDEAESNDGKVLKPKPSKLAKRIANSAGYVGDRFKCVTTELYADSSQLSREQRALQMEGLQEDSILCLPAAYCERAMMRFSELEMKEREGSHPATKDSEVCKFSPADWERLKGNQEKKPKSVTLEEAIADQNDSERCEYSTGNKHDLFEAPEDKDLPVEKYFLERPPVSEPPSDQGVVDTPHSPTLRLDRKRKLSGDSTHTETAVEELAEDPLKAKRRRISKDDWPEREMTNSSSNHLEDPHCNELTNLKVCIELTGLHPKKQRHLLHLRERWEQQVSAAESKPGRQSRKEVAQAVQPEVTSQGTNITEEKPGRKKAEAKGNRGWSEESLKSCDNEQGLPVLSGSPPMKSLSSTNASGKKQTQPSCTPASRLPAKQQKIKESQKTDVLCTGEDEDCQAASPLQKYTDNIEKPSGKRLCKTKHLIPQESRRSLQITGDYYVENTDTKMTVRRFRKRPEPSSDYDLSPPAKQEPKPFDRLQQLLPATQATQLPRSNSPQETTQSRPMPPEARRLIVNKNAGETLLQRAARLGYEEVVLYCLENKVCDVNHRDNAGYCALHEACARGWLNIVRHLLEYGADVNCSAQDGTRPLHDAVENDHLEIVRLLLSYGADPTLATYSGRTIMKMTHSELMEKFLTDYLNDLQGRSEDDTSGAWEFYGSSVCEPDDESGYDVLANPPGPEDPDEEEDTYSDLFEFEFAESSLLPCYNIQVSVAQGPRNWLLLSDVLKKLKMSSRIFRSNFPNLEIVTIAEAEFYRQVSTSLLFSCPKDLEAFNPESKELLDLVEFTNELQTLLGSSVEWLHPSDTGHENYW
UniProt P25799: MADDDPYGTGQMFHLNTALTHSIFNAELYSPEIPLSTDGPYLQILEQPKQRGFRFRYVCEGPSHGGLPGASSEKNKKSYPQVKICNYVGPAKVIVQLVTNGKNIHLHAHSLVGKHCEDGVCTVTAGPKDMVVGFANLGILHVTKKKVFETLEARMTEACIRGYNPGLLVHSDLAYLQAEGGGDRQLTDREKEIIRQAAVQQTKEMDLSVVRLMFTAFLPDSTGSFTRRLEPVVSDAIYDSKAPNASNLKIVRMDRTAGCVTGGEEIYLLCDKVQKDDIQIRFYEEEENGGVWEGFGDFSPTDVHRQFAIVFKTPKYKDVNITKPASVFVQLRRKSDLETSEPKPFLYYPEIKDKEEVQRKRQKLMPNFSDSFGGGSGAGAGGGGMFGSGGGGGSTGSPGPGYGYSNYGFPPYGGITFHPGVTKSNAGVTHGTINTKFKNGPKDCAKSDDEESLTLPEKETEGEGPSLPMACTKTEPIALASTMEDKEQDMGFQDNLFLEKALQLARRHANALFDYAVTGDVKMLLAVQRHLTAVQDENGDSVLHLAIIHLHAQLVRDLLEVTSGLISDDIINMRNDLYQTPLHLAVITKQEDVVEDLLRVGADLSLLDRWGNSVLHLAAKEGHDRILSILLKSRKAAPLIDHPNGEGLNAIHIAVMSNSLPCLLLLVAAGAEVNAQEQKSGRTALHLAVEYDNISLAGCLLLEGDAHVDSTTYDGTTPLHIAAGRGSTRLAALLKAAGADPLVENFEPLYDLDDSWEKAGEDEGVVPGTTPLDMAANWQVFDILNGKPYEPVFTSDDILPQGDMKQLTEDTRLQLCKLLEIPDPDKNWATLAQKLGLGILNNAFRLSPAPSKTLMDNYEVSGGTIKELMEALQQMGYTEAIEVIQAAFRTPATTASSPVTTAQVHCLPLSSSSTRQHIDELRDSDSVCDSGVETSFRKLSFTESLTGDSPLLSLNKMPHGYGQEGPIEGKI
UniProt P15307: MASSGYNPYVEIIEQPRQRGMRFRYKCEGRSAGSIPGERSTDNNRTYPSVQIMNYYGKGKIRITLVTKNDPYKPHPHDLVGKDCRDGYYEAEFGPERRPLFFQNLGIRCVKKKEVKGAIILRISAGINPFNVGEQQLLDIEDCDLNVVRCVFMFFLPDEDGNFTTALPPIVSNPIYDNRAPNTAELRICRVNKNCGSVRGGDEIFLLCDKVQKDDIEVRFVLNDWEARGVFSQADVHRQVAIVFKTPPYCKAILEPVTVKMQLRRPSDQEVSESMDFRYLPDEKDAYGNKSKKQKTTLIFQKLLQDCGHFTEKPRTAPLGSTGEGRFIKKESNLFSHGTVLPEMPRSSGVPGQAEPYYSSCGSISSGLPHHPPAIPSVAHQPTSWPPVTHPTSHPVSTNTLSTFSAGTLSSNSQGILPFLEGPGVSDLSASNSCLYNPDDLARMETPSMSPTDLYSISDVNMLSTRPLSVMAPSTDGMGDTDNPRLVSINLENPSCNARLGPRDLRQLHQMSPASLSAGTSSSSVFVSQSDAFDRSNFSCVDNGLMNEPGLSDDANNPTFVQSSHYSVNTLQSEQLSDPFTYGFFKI

Experiments:
[1] = target: CTBP2 wt (stably re-expressed in J774.1 Ctbp dKO cells) (human) (UniProt P56545); test: affinity purification with mass spectrometry; ChIP-MS for CTBP2 (anti-CTBP2) after LPS stimulation in J774.1 Ctbp dKO cells re-expressing CTBP2 wt or CTBP2 mono; cross-linked chromatin; wt compared with mono and with IgG (fold change > 4 and Padj < 0.05); n = 3 technical replicates
[2] = target: C-terminal binding protein 2 (CTBP2), endogenous in murine BMDMs (mouse (endogenous in BMDMs)) (UniProt P56546); test: affinity purification with mass spectrometry; ChIP-MS: BMDMs treated with LPS (100 ng/ml, 3 h) or vehicle, fixed with 2 mM DSG and 1% formaldehyde, sonicated chromatin precipitated with anti-CTBP2 (#61261; Active Motif) against an IgG control; washes with 140 mM and 500 mM NaCl buffers; enriched: fold change > 4 and Padj < 0.05; n = 3
[3] = target: C-terminal binding protein 2 (CTBP2), endogenous in murine BMDMs (mouse (endogenous in BMDMs)) (UniProt P56546); test: affinity purification with mass spectrometry; differential ChIP-MS for CTBP2, LPS-treated against vehicle-treated BMDMs (absolute fold change > 4 and Padj < 0.05); the LPS condition

| Substance | binding [1] | binding [2] | binding [3] |
| --- | --- | --- | --- |
| CEBPB (from UniProt P28033 1-296) |  | binds |  |
| JUN, endogenous in murine BMDMs (from UniProt P05627 1-334) |  | binds | no binding (only after LPS stimulation) |
| WIZ (from UniProt O88286 1-1684) | binds | binds |  |
| ZFP217 (from UniProt Q3U0X6 1-1041) |  | binds |  |

Second part, the substance after the results:

| binding [1] | binding [2] | binding [3] | Substance |
| --- | --- | --- | --- |
| binds |  |  | ANP32A (from UniProt O35381 1-247) |
|  | binds |  | BCOR (from UniProt Q8CGN4 1-1759) |
|  | binds |  | NFΚB1 (from UniProt P25799 1-971) |
|  | binds |  | REL (from UniProt P15307 1-587) |
|  | binds |  | RELA, endogenous in murine BMDMs (from UniProt Q04207 1-549) |
